Test results as given in patent US10364249B2, “Azatriangulenium salts as PET-quenched fluorescent probes” (KØBENHAVNS UNIVERSITET, priority 2013, dated 2019).

Assay: Absorption and emission spectra, photophysical properties of pH-responsive triangulenium dyes in solution
Type: physicochemical
Conditions: PBS solution, emission spectra at various pH
Method: Absorption and emission spectrum of the prepared triangulenium compounds of Formula (I) were measured and their photophysical properties are compiled in table 2.
pKa is −log10 of the acid dissociation constant, Ka, and is a quantitative measure of the strength of an acid in solution. λmax denotes the wavelength wherein maximum absorption is obtained. λem denotes the wavelength wherein maximum emission is obtained. φfl-on and φfl-off are the fluorescence quantum yields, wherein the responsive fluorescent compounds are in their on-state (not quenched) and off-state (quenched), respectively. Ion/Ioff is the ratio between φfl-on and φfl-off.
All disclosed absorption and emission spectrum measurement shown herein are measured as follows:
Emission spectroscopy was performed in front-face set-up for sensor spot samples and in a conventional L-shape set-up for measuremetns in solution. A Perkin-Elmer LS50B and a Horiba Fluorolog 3 were used interchangeably. Intensity based sensor measurements were only performed on the LS50B platform. Fluorescence lifetime based sensor measurements were only performed on the Fluorolog 3. Absorption spectroscopy was performed on a Perkin Elmer Lambda1050, with integrating sphere (for sensor spots) and with a 3-detector module for solution samples.

## c1cc2oc3cccc4c3[c+]3c2c(c1)oc1cccc(c13)n4CCCN1CCOCC1 [Compound 3a, 4-(3-morpholinopropyl)-4-aza-8,12-dioxa-4,8,12,12c-tetrahydro-dibenzo[cd,mn]-pyrenylium]
  pH range that can be determined reliably (ratiometric principle): 3 to 10
